Measurements: patent publication US20110245334A1, “USE OF RACEMATES OF PINOCEMBRIN IN PREPARING MEDICAMENTS FOR TREATING STROKE” (CSPC Zhonggi Pharmaceutical Technology (Shijiazhuang) Co. …, priority 2008, published 2011)
At least one structure is not confirmed: it was looked up by name or label, or the drawing left a doubt.

System: tMCAO rats
Assay: Therapeutic time window in focal cerebral ischemia-reperfusion injured rats
Assay type: in vivo, rat
Details: in the experimental conditions (1 mg/kg, administered after 3 hours of ischemia)
Method: 1. In the test, transient middle cerebral artery occlusion (tMCAO) model of rats was adopted. The reperfusion was performed after focal cerebral ischemia for 2 hours so as to inspect therapeutic time window of pinocembrin after focal cerebral ischemia. The rats were administered by pinocembrin racemate (1 mg/kg, 5 mg/kg, intravenous injection) after reperfusion 1 hour, 4 hours and 6 hours (i.e., ischemia 3 hour, 6 hours and 8 hours). (R)-pinocembrin and (S)-pinocembrin (1 mg/kg, 5 mg/kg, intravenous injection) were administered after reperfusion 1 hour and 4 hours (i.e., ischemia 3 hour and 6 hours). The therapeutic time windows of these drugs in focal cerebral ischemia were assessed by studying their effects to neurological symptom scores, infarct sizes and brain water contents during 24 hours after tMCAO. […]

COCCOC(=O)C1=C(C)NC(C)=C(C(=O)OC(C)C)C1c1cccc([N+](=O)[O-])c1 (stereo not shown) [Nimodipine, reference compound]
effect on neurobehavioral injury, infarct volume and cerebral edema: not significantly effective
